According to PMC2824764:
These are yes or no findings as the source states them, for the method shown. Binding seen in cells or lysates may run through a third protein. Some entries that bind do so weakly or less than the wild type. For part of these data: Sequences can lack the tags named with a protein. Each block holds one molecule with its values, some of them ahead of it.

Sequences of proteins named here, by UniProt entry; tags and fusion partners are left off.
UniProt Q96CV9: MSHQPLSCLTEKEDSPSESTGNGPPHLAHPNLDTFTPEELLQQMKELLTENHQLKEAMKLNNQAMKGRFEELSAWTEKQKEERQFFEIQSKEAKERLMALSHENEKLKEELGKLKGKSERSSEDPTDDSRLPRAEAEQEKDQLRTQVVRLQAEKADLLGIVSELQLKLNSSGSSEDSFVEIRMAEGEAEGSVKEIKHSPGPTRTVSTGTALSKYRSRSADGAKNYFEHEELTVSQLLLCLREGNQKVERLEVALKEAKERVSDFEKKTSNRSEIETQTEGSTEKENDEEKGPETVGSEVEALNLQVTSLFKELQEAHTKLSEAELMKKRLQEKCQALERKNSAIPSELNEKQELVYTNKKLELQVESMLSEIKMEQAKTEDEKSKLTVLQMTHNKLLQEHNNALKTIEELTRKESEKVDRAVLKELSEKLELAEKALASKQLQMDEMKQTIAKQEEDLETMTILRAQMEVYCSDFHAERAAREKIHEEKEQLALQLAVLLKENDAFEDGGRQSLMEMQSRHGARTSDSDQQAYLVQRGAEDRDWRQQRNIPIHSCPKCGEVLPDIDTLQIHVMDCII
UniProt Q8K3K8: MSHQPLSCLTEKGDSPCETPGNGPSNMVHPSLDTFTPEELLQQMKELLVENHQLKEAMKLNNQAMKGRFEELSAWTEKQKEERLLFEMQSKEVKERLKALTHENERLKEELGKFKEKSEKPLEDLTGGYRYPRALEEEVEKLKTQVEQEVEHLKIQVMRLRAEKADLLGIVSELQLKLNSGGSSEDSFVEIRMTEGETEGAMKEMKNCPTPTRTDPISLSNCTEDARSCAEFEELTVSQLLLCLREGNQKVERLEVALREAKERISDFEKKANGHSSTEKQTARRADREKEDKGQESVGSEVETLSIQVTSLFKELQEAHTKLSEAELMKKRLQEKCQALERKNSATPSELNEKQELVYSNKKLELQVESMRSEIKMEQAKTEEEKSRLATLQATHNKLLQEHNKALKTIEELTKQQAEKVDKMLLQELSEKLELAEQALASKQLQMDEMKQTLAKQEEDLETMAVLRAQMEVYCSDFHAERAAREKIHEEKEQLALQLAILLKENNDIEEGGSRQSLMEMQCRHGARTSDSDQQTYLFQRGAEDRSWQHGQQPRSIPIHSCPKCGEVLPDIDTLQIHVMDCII

What was measured:
[1] = molecular target: T1, endogenous TBK1 (RAW264.7) (mouse (endogenous in RAW264.7)) (UniProt Q9WUN2); assay: co-IP; endogenous proteins from RAW264.7 cells treated with poly-I:C (100 µg/ml) for the times indicated; 1 mg of lysate with anti-optineurin or anti-TBK1 antibody, protein G agarose; pre-immune IgG as control
T1 sequence: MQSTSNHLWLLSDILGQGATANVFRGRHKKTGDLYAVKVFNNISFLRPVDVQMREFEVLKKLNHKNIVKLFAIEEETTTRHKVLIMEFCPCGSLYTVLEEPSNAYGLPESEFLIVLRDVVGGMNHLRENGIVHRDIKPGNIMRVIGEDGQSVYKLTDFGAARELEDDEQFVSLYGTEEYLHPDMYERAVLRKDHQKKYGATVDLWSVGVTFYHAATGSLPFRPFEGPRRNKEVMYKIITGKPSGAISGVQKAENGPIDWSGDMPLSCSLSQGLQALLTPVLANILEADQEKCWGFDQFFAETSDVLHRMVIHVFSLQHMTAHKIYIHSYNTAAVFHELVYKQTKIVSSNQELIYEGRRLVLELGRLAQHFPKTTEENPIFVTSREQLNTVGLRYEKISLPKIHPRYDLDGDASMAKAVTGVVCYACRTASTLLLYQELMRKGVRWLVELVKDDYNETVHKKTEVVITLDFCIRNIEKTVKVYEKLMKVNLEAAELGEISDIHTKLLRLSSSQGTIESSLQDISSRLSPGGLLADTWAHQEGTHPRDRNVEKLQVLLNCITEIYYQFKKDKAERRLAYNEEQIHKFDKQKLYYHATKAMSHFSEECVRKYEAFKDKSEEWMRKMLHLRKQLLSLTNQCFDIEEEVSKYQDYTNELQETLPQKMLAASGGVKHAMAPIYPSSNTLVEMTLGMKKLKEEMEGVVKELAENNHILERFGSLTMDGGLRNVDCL

GST-TBK1 [2] = molecular target: T2, GST-TBK1 (UniProt Q9UHD2); assay: pull-down; GST fusion (or GST) and HA- or FLAG-tagged partner co-expressed in HEK293T cells; 1 mg of total cell lysate with glutathione-agarose beads for 4 hours at 4°C, washed in lysis buffer; immunoblot for the tag; with or without SeV infection (100 HA units/ml, 8 hours) in Figure 4A
T2 sequence: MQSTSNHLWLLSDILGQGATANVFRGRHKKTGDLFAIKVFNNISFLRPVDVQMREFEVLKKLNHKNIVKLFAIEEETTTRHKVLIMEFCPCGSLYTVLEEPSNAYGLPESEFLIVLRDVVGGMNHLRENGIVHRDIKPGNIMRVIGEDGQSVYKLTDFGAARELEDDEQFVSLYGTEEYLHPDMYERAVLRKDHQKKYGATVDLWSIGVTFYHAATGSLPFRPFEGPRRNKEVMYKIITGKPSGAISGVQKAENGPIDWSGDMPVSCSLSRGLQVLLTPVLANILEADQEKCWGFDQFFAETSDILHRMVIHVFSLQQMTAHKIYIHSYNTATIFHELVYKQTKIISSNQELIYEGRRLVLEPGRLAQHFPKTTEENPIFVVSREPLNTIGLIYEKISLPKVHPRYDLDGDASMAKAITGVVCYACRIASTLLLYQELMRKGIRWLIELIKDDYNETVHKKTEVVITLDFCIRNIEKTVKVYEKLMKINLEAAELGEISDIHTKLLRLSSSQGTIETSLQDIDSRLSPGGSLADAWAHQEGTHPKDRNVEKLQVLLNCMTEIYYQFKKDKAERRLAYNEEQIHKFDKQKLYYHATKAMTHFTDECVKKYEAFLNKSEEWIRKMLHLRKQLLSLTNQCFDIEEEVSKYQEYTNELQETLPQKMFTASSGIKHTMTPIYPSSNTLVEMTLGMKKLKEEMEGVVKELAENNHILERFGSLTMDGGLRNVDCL

GST-TBK1 [3] = molecular target: T2, GST-TBK1; assay: pull-down; GST pull-down repeated in HEK293-TLR3 cells treated with dsRNA to activate TLR3 signalling; data not shown
[4] = molecular target: FLAG-tagged wild type optineurin (UniProt Q96CV9); assay: co-IP; sequential: HEK293T cells with FLAG-optineurin with or without HA-TBK1; anti-FLAG agarose, elution with FLAG peptide, then immunoprecipitation with anti-TRAF3 antibody, anti-HA immunoblot
GST-optineurin = GST-optineurin (UniProt Q96CV9); assay: pull-down; GST fusion (or GST) and HA- or FLAG-tagged partner co-expressed in HEK293T cells; 1 mg of total cell lysate with glutathione-agarose beads for 4 hours at 4°C, washed in lysis buffer; immunoblot for the tag; with or without SeV infection (100 HA units/ml, 8 hours) in Figure 4A

binding [1]: binds
Molecule: endogenous optineurin (RAW264.7) (from UniProt Q8K3K8 1-584)

binding (GST-TBK1 [2]): binds
Molecule: FLAG-tagged wild type optineurin (from UniProt Q96CV9 1-577)

binding (GST-TBK1 [3]): binds
binding (GST-TBK1 [2]): binds
Molecule: HA-tagged optineurin (from UniProt Q96CV9 1-577)

binding [4]: binds
binding (GST-optineurin): binds
B1: HA-TBK1 (enzyme, UniProt Q9UHD2 1-729)
chain: T2 sequence
